Experimental data: PubChem BioAssay AID1224830 (NIAID, 2016)

Aim: 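Host factors that control LPS-induced TNF expression in human macrophages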 (primary screen)
System: human THP-1 monocytic leukaemia cells, TNF dual-luciferase reporter clone, PMA-differentiated to macrophage-like cells
Reagent: siRNA pool against human genes, 50 nM
Timing: LPS for 4 h, given about 3 days after siRNA transfection
Conditions: bacterial LPS (TLR4 ligand), 10 ng/ml
Read-out: 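TNF firefly reporter luminescence divided by renilla, normalised to the plate median, then turned into a robust z-score for each replicate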
Reading the numbers: TNF reporter robust z-score: higher = stronger TNF reporter response to LPS
Hit rule: 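Each well counts as active if its z-score is over 2.8 or under -1.5; controls are left without a call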
The deposit covers about 18,000 reagents; this is a part drawn at random. Of all reagents, about 2,900 (16%) are marked active. 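Calls are made per well; low scores hint the gene aids the LPS response, high scores that it dampens it.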 Repeated entries: four replicate wells of each siRNA pool.

no.	gene knocked down	TNF reporter robust z-score	Call
1	PTPRM (GeneID 5797)	0.28	inactive
2	PTPRM (GeneID 5797)	0.64	inactive
3	PTPRM (GeneID 5797)	0.9	inactive
4	PTPRM (GeneID 5797)	0.86	inactive
5	RPS19 (GeneID 6223)	-0.34	inactive
6	RPS19 (GeneID 6223)	0.12	inactive
7	RPS19 (GeneID 6223)	0.26	inactive
8	RPS19 (GeneID 6223)	-0.31	inactive
9	EFNA3 (GeneID 1944)	0.59	inactive
10	EFNA3 (GeneID 1944)	1.31	inactive
11	EFNA3 (GeneID 1944)	0.78	inactive
12	EFNA3 (GeneID 1944)	1.02	inactive
13	C12orf42 (GeneID 374470)	0.03	inactive
14	C12orf42 (GeneID 374470)	0.09	inactive
15	C12orf42 (GeneID 374470)	0.94	inactive
16	C12orf42 (GeneID 374470)	0.48	inactive
17	SLC39A5 (GeneID 283375)	0	inactive
18	SLC39A5 (GeneID 283375)	0.46	inactive
19	SLC39A5 (GeneID 283375)	-0.97	inactive
20	SLC39A5 (GeneID 283375)	-0.22	inactive
21	NUBPL (GeneID 80224)	0.76	inactive
22	NUBPL (GeneID 80224)	1.02	inactive
23	NUBPL (GeneID 80224)	0.33	inactive
24	NUBPL (GeneID 80224)	0.06	inactive

Laid out differently: 6 of the entries above
{"gene knocked down":"C12orf42 (GeneID 374470)","TNF reporter robust z-score":0.09,"Call":"inactive"}
{"gene knocked down":"C12orf42 (GeneID 374470)","TNF reporter robust z-score":0.94,"Call":"inactive"}
{"gene knocked down":"C12orf42 (GeneID 374470)","TNF reporter robust z-score":0.48,"Call":"inactive"}
{"gene knocked down":"SLC39A5 (GeneID 283375)","TNF reporter robust z-score":0,"Call":"inactive"}
{"gene knocked down":"SLC39A5 (GeneID 283375)","TNF reporter robust z-score":0.46,"Call":"inactive"}
{"gene knocked down":"SLC39A5 (GeneID 283375)","TNF reporter robust z-score":-0.97,"Call":"inactive"}

The listing continues.
no.	gene knocked down	TNF reporter robust z-score	Call
25	CPLX1 (GeneID 10815)	0.21	inactive
26	CPLX1 (GeneID 10815)	-0.08	inactive
27	CPLX1 (GeneID 10815)	-0.35	inactive
28	CPLX1 (GeneID 10815)	0.32	inactive
29	TSPAN14 (GeneID 81619)	-1.41	inactive
30	TSPAN14 (GeneID 81619)	-0.55	inactive
31	TSPAN14 (GeneID 81619)	-1.01	inactive
32	TSPAN14 (GeneID 81619)	-0.01	inactive
33	RANBP1 (GeneID 5902)	0.51	inactive
34	RANBP1 (GeneID 5902)	-0.52	inactive
35	RANBP1 (GeneID 5902)	-0.01	inactive
36	RANBP1 (GeneID 5902)	0.3	inactive
37	FAF1 (GeneID 11124)	0.59	inactive
38	FAF1 (GeneID 11124)	1.37	inactive
39	FAF1 (GeneID 11124)	1.36	inactive
40	FAF1 (GeneID 11124)	2.15	inactive
41	ATP4B (GeneID 496)	0.57	inactive
42	ATP4B (GeneID 496)	2.57	inactive
43	ATP4B (GeneID 496)	0.76	inactive
44	ATP4B (GeneID 496)	3.08	active
45	PPP1R14C (GeneID 81706)	-0.37	inactive
46	PPP1R14C (GeneID 81706)	0.44	inactive
47	PPP1R14C (GeneID 81706)	-0.02	inactive
48	PPP1R14C (GeneID 81706)	-0.2	inactive
